# Screening data, single-dose tests

Mtb glucose medium: 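Phenotypic screen: M. tuberculosis growth, glucose 7H9 medium, 3 days; the read-out is not stated. Compounds at 50 µM. Direction is inferred from retests: higher values go with more growth inhibition. About 69,000 compounds were tested under these conditions; 1.1% (about 760) showed 50% or more at least once.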
Mtb cholesterol medium: 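Phenotypic screen: M. tuberculosis growth, cholesterol and DPPC medium, 4 days; the read-out is not stated. Tested at 50 µM. Direction is inferred from retests: higher values go with more growth inhibition. Size under these conditions: about 69,000 compounds, about 370 of them at 50% or above in at least one test.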

Each number is a percent effect as filed. The controls that fix the scale are not given in the record; negative values are as filed. This is an unselected part of the compounds tested. Two or more numbers in one place are separate tests of the same structure; such repeats can differ widely.

structure	Mtb glucose medium	Mtb cholesterol medium
Cc1nc(-c2ccncc2)ncc1C(C)NC(=O)CN1CCOC1=O (centres unmarked)	-27.57	-15.34
Cc1ccc(CNC2(Cc3cc(-c4cccc(O)c4)on3)COC2)o1	2.95 and -6.526	-12.09
Cc1cc(F)cc(NC(=O)N(C)CC(C)(CO)CO)c1	29.33 and 1.746	13.72
CC(C)C(CNC(=O)CCn1cncn1)N1CCc2ccccc2C1 (centres unmarked)	-10.24	1.845
CCOC(=O)[C@H]1[C@@H](O)C(=O)N(C)C12CCN(C(=O)CC1CCCC1)CC2	-14.56	-12.69
Cc1cc(C(=O)N(C)C2CCN(C)C2)c2ccc(F)cc2n1 (centres unmarked)	-2.721	-8.963
Cc1cccc(C(=O)NCc2ccc(OCCN(C)C)cc2)c1C	-0.7859	-9
Cc1noc2nc3c(c(C(=O)/N=c4\[nH]nc(C(C)C)s4)c12)CCC3	-2.324	18.92
CCOC1COC2(CCN(c3cccc(C)n3)CC2)C1.O=C(O)C(F)(F)F (centres unmarked)	14.31	1.874
O=C(c1cnc(C2CC2)nc1)N1CCC(N2CCC(O)CC2)CC1	-34.99	-15.81
NCC(=O)N1CCCCC1c1ccc(F)cc1 (centres unmarked)	-14.27 and 2.222	-4.315
CCC(c1ccc(F)cc1)S(=O)(=O)CCO (centres unmarked)	-21.95	-5.739
Cc1ccccc1OC1CCN(CC(=O)Nc2c(C)nn(C)c2C)CC1	-8.387	1.752 and 2.89
Cc1cccc(CN2CCC(NCC3CNc4cc(C)nn4C3)CC2)c1 (centres unmarked)	26.12 and 28.93	13.38
CC(C)CCC(=O)N(C)CC(=O)Nc1ccc(Br)cn1	-9.154	-12.9
COc1ccccc1C1CNC(=O)c2nc(-c3cn(C)nc3C)[nH]c2C1 (centres unmarked)	-1.419	-18.48
Cc1nc(N2CCCC2)nc2c1CCN(Cc1ccco1)CC2.O=C(O)C(F)(F)F	84.93	78.81
c1ccc2c(CC3CN(Cc4nccs4)CCO3)cccc2c1 (centres unmarked)	32.88 and 14.4	9.431 and 16.13
CCCNS(=O)(=O)c1ccc(C(=O)NC(CC)c2cnn(C)c2)cc1 (centres unmarked)	35.09 and 4.537	15.37
Cc1cc(=O)[nH]c(NCCNC(=O)CN2CCCCCC2)n1	-8.937 and -39.93	-41.24
Cc1ncnc(NCC(C)N(C)c2ccccc2)c1C (centres unmarked)	14.3	-4.378
COc1c(C)cnc(CN2CCOC(Cn3nc(C)nc3C)C2)c1C (centres unmarked)	-3.456	-9.331
Cc1ccc(C(=O)N2CCc3c(COCC4CC4)cncc3C2)o1	-16.22	-23.28
COCc1ccc(CN2CCC(O)(Cn3ccc4ncccc43)CC2)o1.Cl	4.51	-14.41
O=C(CCc1cc2n(n1)CCNC2)NCCS(=O)(=O)N1CCCC1	4.71	3.838
COc1ccc(OCc2cc(C(=O)N3C[C@@H](C)O[C@@H](C)C3)n[nH]2)c(Cl)c1	-6.969	-0.3115
Cn1ccnc1CN1CCC2(CCCN2c2ncccn2)CC1.O=C(O)C(F)(F)F	-2.243 and -6.796	17.52
Cc1cc(NC(=O)CCn2nc(C)c3ccccc32)n(C(C)C)n1	20.74	13.57
Cc1ncsc1C(=O)N(C)Cc1ccsc1	12.05	-7.884
Nc1nc(CN2CCCC2Cn2cncn2)nc2ccccc12 (centres unmarked)	19.78	11.17
COc1ccc(CNCC2CNc3cc(C)nn3C2)cn1 (centres unmarked)	0.8319	6.789
Cc1nn(-c2ccccc2)c(C)c1CN1CCNCC1	-34.18	-25.8
O=S(=O)(C1CC1)N1Cc2nccn2CC(Cn2cncn2)C1 (centres unmarked)	27.92	10.46
Cc1c(NCc2ccc(C#N)cc2)cccc1S(=O)(=O)NC1CC1	8.064	14.24
COCCn1c(=O)n(C)c(=O)c2ccc(C3CCC(CN)CC3)nc21.Cl (centres unmarked)	-22.8	-20.29 and -2.022
Cc1nnc(C2Cc3ccccc3CN2Cc2c(C)noc2C)o1 (centres unmarked)	7.261	4.269
Cc1cc(CN2CCC3(CC2)CC(Nc2ncccn2)CO3)nn1C.O=C(O)C(F)(F)F (centres unmarked)	-13.86	-20.17
COCc1cccc(CNCc2c(C)nn(C)c2N2CCOCC2)c1	-3.431	-11.32
CC(CNC(=O)c1ccon1)Oc1cccc(Br)c1 (centres unmarked)	33.19	49.57 and 54.65
COc1ccc(CC(=O)N2CCCC2Cn2cccn2)cc1F (centres unmarked)	14.41	3.515
CC(C)N(C)Cc1cncc2c1CCN(C(=O)c1ccccc1F)C2.Cl.Cl	-11.06 and 9.161	1.023

Measurements from “University of Dundee, Small-Polar-MMV Screening Library” (2021), ChEMBL document CHEMBL3988442.